Residue numbers refer to the chain shown, from its start. No constants are given. Whether binding was seen depends on the method and setting. Binding seen in cells or lysates may run through a third protein. A yes stands for co-enrichment or nearness to the bait. Other partners may have been found. For part of these data: A no says only that the protein was not detected with the bait. Tags and fused reporters may be left off the sequences shown. Values belong to the molecule of their own block, whether it stands above or below them.
Experiments:
[1] = target: T1, wild-type follicle-stimulating hormone receptor, C-terminally MAC-tagged (human) (UniProt P23945); test: affinity purification with mass spectrometry; C-terminally MAC-tagged WT or A189V FSHR as bait from Flp-In 293 T-REx lysate (0.5% NP40, 150 mM NaCl, HEPES pH 8.0) on Strep-Tactin matrix, eluted with biotin; cells non-stimulated or stimulated 2 h at 37 C with 100 ng/ml FSH; high-confidence interactions by SAINT (Bayesian FDR < 0.01) against GFP controls and CRAPome
T1 sequence: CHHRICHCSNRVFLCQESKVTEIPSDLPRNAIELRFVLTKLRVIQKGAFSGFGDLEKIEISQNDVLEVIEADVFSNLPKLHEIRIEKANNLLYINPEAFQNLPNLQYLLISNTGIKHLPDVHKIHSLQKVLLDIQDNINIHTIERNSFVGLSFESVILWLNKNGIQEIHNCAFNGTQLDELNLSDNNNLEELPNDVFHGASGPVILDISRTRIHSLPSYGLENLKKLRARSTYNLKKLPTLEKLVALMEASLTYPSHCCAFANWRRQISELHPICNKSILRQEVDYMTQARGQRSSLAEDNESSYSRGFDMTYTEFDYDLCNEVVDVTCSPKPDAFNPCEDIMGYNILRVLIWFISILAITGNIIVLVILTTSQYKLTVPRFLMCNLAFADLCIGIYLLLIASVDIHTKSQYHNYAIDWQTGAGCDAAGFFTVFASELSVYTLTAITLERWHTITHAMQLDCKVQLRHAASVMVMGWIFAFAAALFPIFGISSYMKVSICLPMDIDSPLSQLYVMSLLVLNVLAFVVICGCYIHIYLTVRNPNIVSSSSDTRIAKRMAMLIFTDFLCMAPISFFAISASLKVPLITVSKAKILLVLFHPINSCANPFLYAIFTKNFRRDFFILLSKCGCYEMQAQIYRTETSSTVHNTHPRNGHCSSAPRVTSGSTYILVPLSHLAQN

Sequences of proteins named here, by UniProt entry; tags and fusion partners are left off. Residues count along the entry.
UniProt P08069, residues 31-1367: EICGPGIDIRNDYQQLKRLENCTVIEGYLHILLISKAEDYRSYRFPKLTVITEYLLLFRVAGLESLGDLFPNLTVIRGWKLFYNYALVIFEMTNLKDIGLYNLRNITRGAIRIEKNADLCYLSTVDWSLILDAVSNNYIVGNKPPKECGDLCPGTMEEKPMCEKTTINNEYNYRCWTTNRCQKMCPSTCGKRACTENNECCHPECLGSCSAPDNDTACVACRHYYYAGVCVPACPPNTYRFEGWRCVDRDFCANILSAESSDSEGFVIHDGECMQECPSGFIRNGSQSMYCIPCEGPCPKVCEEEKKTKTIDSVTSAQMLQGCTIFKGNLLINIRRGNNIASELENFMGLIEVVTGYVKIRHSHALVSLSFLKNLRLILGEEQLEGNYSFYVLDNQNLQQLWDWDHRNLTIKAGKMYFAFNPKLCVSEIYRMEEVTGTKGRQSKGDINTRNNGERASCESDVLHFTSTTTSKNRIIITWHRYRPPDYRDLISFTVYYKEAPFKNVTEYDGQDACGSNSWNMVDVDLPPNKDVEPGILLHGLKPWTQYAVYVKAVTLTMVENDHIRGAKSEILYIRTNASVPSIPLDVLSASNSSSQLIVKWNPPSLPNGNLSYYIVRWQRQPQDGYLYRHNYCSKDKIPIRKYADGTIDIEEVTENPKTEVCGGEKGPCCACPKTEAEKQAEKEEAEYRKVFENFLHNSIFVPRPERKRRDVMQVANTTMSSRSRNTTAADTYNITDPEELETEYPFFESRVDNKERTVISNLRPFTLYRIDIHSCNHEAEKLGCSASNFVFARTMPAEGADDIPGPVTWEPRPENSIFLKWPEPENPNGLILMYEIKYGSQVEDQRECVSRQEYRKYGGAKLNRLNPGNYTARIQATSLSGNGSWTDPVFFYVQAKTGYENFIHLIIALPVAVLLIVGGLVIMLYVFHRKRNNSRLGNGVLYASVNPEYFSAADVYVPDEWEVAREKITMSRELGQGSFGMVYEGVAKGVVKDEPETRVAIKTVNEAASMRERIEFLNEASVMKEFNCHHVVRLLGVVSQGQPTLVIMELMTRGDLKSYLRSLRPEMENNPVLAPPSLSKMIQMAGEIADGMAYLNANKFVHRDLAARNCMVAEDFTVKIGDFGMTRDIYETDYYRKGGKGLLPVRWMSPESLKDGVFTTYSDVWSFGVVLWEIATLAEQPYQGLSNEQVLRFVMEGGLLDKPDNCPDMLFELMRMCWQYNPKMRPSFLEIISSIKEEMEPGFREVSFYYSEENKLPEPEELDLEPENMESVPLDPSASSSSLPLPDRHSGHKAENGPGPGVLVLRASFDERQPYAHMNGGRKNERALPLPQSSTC
UniProt Q7Z739: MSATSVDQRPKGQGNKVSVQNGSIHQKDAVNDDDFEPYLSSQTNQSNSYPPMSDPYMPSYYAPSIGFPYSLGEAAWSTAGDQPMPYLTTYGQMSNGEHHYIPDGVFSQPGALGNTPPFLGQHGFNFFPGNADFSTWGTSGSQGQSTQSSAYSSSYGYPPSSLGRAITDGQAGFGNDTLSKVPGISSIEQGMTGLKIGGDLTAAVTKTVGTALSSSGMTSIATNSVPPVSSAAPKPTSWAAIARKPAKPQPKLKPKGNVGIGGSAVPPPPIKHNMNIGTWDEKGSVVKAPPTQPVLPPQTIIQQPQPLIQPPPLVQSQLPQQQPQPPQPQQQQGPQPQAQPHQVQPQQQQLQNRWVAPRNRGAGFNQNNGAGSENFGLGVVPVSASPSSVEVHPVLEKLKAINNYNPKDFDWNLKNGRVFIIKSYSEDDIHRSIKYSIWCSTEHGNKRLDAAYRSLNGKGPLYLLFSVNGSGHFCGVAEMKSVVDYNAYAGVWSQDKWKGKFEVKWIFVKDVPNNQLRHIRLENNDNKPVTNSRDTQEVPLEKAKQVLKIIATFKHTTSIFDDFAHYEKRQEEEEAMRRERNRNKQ
UniProt P05067, residues 18-770: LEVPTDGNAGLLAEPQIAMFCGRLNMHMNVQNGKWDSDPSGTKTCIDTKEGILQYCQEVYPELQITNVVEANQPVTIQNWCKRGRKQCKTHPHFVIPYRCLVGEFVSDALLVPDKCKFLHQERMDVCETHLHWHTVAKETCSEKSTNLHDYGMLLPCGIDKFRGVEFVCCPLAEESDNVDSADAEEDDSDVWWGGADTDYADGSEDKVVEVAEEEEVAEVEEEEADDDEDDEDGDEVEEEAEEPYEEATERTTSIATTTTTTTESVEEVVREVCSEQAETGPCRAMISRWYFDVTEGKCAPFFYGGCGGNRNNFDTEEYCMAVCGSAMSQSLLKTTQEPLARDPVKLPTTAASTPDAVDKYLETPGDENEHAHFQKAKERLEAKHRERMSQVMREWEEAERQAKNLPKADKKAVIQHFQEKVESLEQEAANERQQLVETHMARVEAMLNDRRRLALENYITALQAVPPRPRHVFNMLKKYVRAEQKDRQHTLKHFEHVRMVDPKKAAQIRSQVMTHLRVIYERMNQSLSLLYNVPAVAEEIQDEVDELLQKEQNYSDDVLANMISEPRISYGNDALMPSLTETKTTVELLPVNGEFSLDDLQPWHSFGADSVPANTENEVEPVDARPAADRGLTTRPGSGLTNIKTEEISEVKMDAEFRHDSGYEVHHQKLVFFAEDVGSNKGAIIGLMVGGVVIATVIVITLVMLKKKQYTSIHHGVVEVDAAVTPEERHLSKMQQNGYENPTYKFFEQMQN
UniProt Q9Y5G0, residues 31-923: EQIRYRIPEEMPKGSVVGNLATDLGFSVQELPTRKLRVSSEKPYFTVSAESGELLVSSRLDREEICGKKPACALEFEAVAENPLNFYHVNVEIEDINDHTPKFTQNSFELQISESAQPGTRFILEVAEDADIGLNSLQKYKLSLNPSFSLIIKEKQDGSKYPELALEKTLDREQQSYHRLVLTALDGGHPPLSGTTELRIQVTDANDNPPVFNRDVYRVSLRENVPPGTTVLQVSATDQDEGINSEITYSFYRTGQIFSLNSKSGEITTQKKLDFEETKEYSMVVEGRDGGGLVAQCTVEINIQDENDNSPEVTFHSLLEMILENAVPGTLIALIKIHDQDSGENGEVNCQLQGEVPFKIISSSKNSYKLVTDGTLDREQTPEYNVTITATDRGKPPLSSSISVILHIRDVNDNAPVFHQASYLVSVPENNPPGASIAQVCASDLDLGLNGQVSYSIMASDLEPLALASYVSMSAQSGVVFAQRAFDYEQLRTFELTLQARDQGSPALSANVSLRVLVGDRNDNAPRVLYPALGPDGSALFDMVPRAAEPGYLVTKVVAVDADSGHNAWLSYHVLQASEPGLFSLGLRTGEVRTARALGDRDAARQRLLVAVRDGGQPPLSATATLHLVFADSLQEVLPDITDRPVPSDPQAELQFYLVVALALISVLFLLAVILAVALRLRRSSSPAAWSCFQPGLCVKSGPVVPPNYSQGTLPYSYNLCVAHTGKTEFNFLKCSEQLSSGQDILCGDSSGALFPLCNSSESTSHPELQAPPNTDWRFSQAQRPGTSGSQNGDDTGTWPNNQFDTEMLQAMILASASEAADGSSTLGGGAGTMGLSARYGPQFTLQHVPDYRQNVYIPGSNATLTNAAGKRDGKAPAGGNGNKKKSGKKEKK

[2] = target: T2, A189V mutant follicle-stimulating hormone receptor, C-terminally MAC-tagged (human) (UniProt P23945); test: as above
T2 sequence: T1 sequence with A172V

[3] = target: T1, wild-type follicle-stimulating hormone receptor, C-terminally MAC-tagged (human); test: affinity purification with mass spectrometry; as a1, cells without FSH stimulation only (receptor at resting state)
[4] = target: T2, A189V mutant follicle-stimulating hormone receptor, C-terminally MAC-tagged (human); test: as above

binding [1]: binds
binding [2]: binds
Molecule: Insulin-like growth factor 1 receptor (from UniProt P08069 31-1367)
binding [3]: no binding (only without FSH stimulation)
binding [4]: no binding (only without FSH stimulation)

binding [1]: binds
binding [2]: no binding
Molecule: YTH domain-containing family protein 3 (from UniProt Q7Z739 1-585)

binding [2]: binds
Molecule: amyloid precursor protein (from UniProt P05067 18-770)

binding [1]: binds
binding [2]: binds
Molecule: procadherin gamma-B5 (from UniProt Q9Y5G0 31-923)

binding [1]: binds
binding [2]: binds
B1: stromal cell-derived factor 2 (protein, UniProt Q99470 19-211)
chain: SSLGVVTCGSVVKLLNTRHNVRLHSHDVRYGSGSGQQSVTGVTSVDDSNSYWRIRGKSATVCERGTPIKCGQPIRLTHVNTGRNLHSHHFTSPLSGNQEVSAFGEEGEGDYLDDWTVLCNGPYWVRDGEVRFKHSSTEVLLSVTGEQYGRPISGQKEVHGMAQPSQNNYWKAMEGIFMKPSELLKAEAHHAEL

binding [2]: binds
B2: TGF-beta receptor type-1 (receptor, UniProt P36897 34-503)
chain: LQCFCHLCTKDNFTCVTDGLCFVSVTETTDKVIHNSMCIAEIDLIPRDRPFVCAPSSKTGSVTTTYCCNQDHCNKIELPTTVKSSPGLGPVELAAVIAGPVCFVCISLMLMVYICHNRTVIHHRVPNEEDPSLDRPFISEGTTLKDLIYDMTTSGSGSGLPLLVQRTIARTIVLQESIGKGRFGEVWRGKWRGEEVAVKIFSSREERSWFREAEIYQTVMLRHENILGFIAADNKDNGTWTQLWLVSDYHEHGSLFDYLNRYTVTVEGMIKLALSTASGLAHLHMEIVGTQGKPAIAHRDLKSKNILVKKNGTCCIADLGLAVRHDSATDTIDIAPNHRVGTKRYMAPEVLDDSINMKHFESFKRADIYAMGLVFWEIARRCSIGGIHEDYQLPYYDLVPSDPSVEEMRKVVCEQKLRPNIPNRWQSCEALRVMAKIMRECWYANGAARLTALRIKKTLSQLSQQEGIKM

From article PMC9308958
